# Binding screen against folded nucleic acids

From ROBIN, a set of small-molecule microarray screens (doi:10.1002/anie.202211358).

Targets (5′ to 3′):
SAM-II: SAM-II riboswitch RNA pseudoknot, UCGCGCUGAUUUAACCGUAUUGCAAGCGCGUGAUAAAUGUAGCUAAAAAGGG. About 200 hits among about 21,000 compounds.
PreQ1: PreQ1 riboswitch RNA pseudoknot, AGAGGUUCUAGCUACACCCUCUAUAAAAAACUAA. From B. subtilis. About 170 hits among about 24,000 compounds.
TPP: TPP riboswitch RNA three-way junction, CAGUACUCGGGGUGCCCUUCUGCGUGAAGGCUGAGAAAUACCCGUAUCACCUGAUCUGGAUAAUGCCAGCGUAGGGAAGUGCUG. About 160 hits among about 24,000 compounds.

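Compounds were printed on reactive glass slides in duplicate spots, a dye-labelled oligonucleotide was laid over them, and the fluorescence left after washing was read. For the PreQ1, TPP and SAM-II riboswitches the laboratory earlier reported (doi:10.1038/s41467-019-09493-3) 1 µM RNA, 2 h, and a rule that included a mean Z-score above 3 (spot signal-to-noise against the whole library), a score well above that on a control array, and duplicate spots agreeing (coefficient of variation under 100). The data file gives only the calls; its cut-offs may differ, and compounds hitting several targets are kept. These are primary screening calls, not affinities; a compound without a hit may have attached poorly or may still bind in solution.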 “active” means called a hit, “inactive” means screened and not called a hit. This is an unselected part of the compounds tested. A target missing from an entry has no call listed here.

With CCCCC(=O)C1=C(NCCc2c(C)[nH]c3ccccc23)CC(C)(C)CC1=O the screen gave SAM-II: inactive; PreQ1: inactive; TPP: inactive. O=C1NC(CC(=O)N2C[C@H]3CC[C@@H](C2)N3)c2ccccc21 (stereo partly shown) was scored SAM-II: inactive; PreQ1: inactive; TPP: inactive. Calls for N#CC1=C(N)N(c2ccc(F)cc2)C2=C(C(=O)CCC2)C1c1cccnc1 (stereo not shown) are SAM-II: inactive; PreQ1: inactive; TPP: inactive. CN1CCN(C[C@@H]2CN(c3ccc4cc(Cl)ccc4n3)C[C@@H]2CO)CC1 was scored SAM-II: inactive; PreQ1: inactive; TPP: inactive. COc1cc(Oc2ccnc3cc(OC)c(OC)cc23)ccc1NC(=O)NC(C)c1nccs1 (stereo not shown) was scored SAM-II: inactive; PreQ1: inactive; TPP: inactive.

Calls for C[C@@]1(O)CCN(C(=O)CN2CCC(c3ccccc3)CC2)C[C@@H]1O are SAM-II: inactive; PreQ1: inactive; TPP: inactive. For CCc1cnc(N)nc1NCCC(C)N(C)CC (stereo not shown) the calls were SAM-II: inactive; PreQ1: inactive; TPP: inactive. For Cc1ccccc1Cn1nnc(C(=O)NCc2ccccc2)c1N the calls were SAM-II: inactive; PreQ1: inactive; TPP: inactive. Calls for CCc1ccc(OCCn2c(C(O)CC)nc3ccccc32)cc1 (stereo not shown) are PreQ1: inactive; TPP: inactive. Calls for CC[C@@]1(O)CCN(Cc2ccc(C(F)(F)F)nc2)C[C@H]1O are SAM-II: inactive; PreQ1: inactive; TPP: inactive.

Calls for CCC(=O)C1=C(NCCc2c(C)[nH]c3ccccc23)CCCC1=O are SAM-II: inactive; PreQ1: inactive; TPP: inactive. Calls for OC(CN1CCN(C2c3ccccc3-c3ccccc32)CC1)Cn1c2ccccc2c2ccccc21 (stereo not shown) are SAM-II: inactive; PreQ1: inactive; TPP: inactive. Calls for Cc1ccc(OCCCn2c(C(C)O)nc3ccccc32)cc1 (stereo not shown) are PreQ1: inactive; TPP: inactive. Calls for CCc1cc(C)cc(OCC(O)Cn2c[n+](CC)c3ccccc32)c1 (stereo not shown) are SAM-II: inactive; PreQ1: inactive; TPP: inactive. Calls for CN(C)c1ccc(CCNC(=O)CN(C)C2CCNCC2)cc1 are SAM-II: inactive; PreQ1: inactive; TPP: inactive.

For COc1ccc(-c2csc(Nc3ccc(C(=O)O)cc3)n2)cc1 the calls were SAM-II: inactive; PreQ1: inactive; TPP: inactive. For CN(C)c1ccc(/C=C(\C#N)C(=O)c2ccccc2)cc1 the calls were SAM-II: inactive; PreQ1: inactive; TPP: inactive. Calls for Nc1nc(OCC(F)(F)C(F)F)cc(-c2ccccc2)n1 are SAM-II: inactive; PreQ1: inactive; TPP: inactive. For COc1ccc(Cl)cc1-n1nnc(-c2nc(-c3ccncc3)no2)c1N the calls were PreQ1: inactive; TPP: inactive. For COC(=O)c1sc(N2CCCCCC2)nc1N the calls were SAM-II: inactive; PreQ1: inactive; TPP: inactive.

With CCOC(=O)/C=C/c1ccc(C(=O)OCC)[nH]1 the screen gave SAM-II: inactive; PreQ1: inactive; TPP: inactive. Calls for COc1cc(C=Cc2nc(C#N)c(NCCCN(C)C)o2)cc(OC)c1OC are PreQ1: inactive; TPP: inactive. CCC(Nc1ccc(Br)cc1)C(=O)NN=Cc1c[nH]c2ccccc12 (stereo not shown) was scored SAM-II: inactive; PreQ1: inactive; TPP: inactive. With COc1ccc(S(=O)(=O)CCO)cc1N the screen gave SAM-II: inactive; PreQ1: inactive; TPP: inactive. With Cc1ccc2oc3c(c(=O)c2c1)C1(C(=O)N(C)c2ccccc21)N(CCO)C3=O (stereo not shown) the screen gave PreQ1: inactive; TPP: inactive.

O=c1c2ccccc2ncn1CCCc1nc(-c2ccncc2)nn1CCO was scored SAM-II: inactive; PreQ1: inactive; TPP: inactive. CCC(NCC(O)Cn1c2ccccc2c2ccccc21)C(=O)O (stereo not shown) was scored SAM-II: inactive; PreQ1: inactive; TPP: inactive. COc1ccc([C@@H]2CN(c3nc(CO)cs3)C[C@H]2NC(C)=O)cc1 was scored SAM-II: inactive; PreQ1: inactive; TPP: inactive. With Cc1cccc(N2C(=O)CC(NCCC3=CCCCC3)C2=O)c1 (stereo not shown) the screen gave SAM-II: inactive; PreQ1: inactive; TPP: inactive. Calls for CN1CCN(c2cc(N3CCCC(C(=O)c4ccccc4)C3)nc(N)n2)CC1 (stereo not shown) are SAM-II: inactive; PreQ1: inactive; TPP: inactive.

Once more, the final 3:

compound,SAM-II,PreQ1,TPP
COc1ccc([C@@H]2CN(c3nc(CO)cs3)C[C@H]2NC(C)=O)cc1,inactive,inactive,inactive
Cc1cccc(N2C(=O)CC(NCCC3=CCCCC3)C2=O)c1 (stereo not shown),inactive,inactive,inactive
CN1CCN(c2cc(N3CCCC(C(=O)c4ccccc4)C3)nc(N)n2)CC1 (stereo not shown),inactive,inactive,inactive